Reference: paper PMC5856799
Results are given in words; binding and its absence hold for the method and conditions named. In cells and extracts the contact can be indirect. Some binding calls cover weakened binding; strength is not graded here.

Sequences of proteins named here, by UniProt entry; tags and fusion partners are left off. Residues count along the entry.
UniProt P51884, residues 19-338: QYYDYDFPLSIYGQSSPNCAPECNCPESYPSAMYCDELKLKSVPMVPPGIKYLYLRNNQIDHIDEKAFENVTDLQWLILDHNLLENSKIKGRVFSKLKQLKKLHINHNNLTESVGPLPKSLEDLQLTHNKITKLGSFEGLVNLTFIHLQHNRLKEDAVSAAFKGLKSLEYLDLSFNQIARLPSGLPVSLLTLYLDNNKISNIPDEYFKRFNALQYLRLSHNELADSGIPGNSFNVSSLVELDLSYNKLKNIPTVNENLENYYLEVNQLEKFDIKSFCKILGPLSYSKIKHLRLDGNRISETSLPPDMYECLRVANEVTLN

Molecular target: T1, p120 catenin (human (endogenous in A549 and H460)) (UniProt O60716)
T1 sequence: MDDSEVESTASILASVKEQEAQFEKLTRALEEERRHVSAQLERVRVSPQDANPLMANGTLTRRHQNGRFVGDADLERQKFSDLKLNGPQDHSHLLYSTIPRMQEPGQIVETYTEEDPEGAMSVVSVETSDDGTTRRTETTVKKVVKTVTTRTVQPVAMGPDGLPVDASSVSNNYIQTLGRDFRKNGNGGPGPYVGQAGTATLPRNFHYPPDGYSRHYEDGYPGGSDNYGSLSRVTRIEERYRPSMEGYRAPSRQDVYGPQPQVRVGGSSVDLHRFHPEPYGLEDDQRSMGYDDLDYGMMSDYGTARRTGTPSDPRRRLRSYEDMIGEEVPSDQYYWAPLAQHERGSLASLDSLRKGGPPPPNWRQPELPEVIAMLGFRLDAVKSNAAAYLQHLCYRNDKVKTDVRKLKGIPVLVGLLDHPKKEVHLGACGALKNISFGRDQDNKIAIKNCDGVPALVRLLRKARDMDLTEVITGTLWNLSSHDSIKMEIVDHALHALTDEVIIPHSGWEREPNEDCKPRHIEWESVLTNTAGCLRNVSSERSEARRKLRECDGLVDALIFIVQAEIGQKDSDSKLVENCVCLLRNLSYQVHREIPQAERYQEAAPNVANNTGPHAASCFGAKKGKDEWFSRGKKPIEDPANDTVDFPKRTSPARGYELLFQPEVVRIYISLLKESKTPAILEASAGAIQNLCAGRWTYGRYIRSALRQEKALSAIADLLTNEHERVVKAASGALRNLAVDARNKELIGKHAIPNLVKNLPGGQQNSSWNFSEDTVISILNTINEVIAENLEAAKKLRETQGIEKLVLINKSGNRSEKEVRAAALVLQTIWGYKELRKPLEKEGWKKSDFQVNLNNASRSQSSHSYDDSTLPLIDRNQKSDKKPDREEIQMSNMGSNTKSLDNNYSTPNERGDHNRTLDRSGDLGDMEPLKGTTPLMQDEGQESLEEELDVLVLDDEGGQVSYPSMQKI
Test: co-IP; endogenous proteins; total cell lysates of control and LD (lumican shRNA) cells in 1% NP-40, 50 mM Tris pH 7.4, 150 mM NaCl, 2 mM EDTA, 50 mM NaF, 10% glycerol; immunoprecipitated with anti-p120ctn antibody, protein G; western blot for lumican

- binding: binds
Substance: lumican (from UniProt P51884 19-338)
